This continues a long series; more values of the same kind are listed elsewhere.
Test system: PBMC of RRMS patients
Assay: Gene expression microarray analysis (HG-U133A-2) of PBMC from RRMS patients treated with LAQ, ancillary study to ALLEGRO
Assay type: in vivo, human
From the text: The goal of this ancillary study was to characterize gene expression changes and corresponding biological mechanisms induced in PBMC of RRMS patients by LAQ treatment. According to ALLEGRO clinical trial inclusion criteria, 25 patients were randomly assigned to receive LAQ (n=13, age 38.8±2.3 years, female/male ratio: 8/5) or placebo (n=12, age 37.2±3.4 years, female/male ratio: 8/4).
Peripheral blood samples were obtained from RRMS patients at baseline before start of LAQ treatment or placebo, after 0, 1, 6 and 24 month of treatment (visit 0, 1, 6 and 7 according to ALLEGRO clinical trial protocol correspondently) for gene microarray analysis.
Briefly, 1) Peripheral blood mononuclear cells (PBMC) were obtained from RRMS patients that participated in ALLEGRO and were treated daily with 0.6 mg LAQ or placebo. PBMC were subjected for gene expression analysis (HU-133A-2-Affymatrix arrays) at baseline and at 1 and 6 months of LAQ treatment; 2) Data was analyzed by Partek Genomics Solution software. Most informative genes (MIGs) were defined as those that differentiated between groups with p<0.01. Gene functional annotation, enrichment and pathway analysis were performed by Ingenuity software. For each time point, genes that changed in placebo group were excluded from further analysis; and 3) Verification of LAQ related mechanism was performed by Western blot.
PBMC were extracted from 15 ml peripheral blood, separated by Ficoll-Hypaque gradient. Total RNA was extracted using both Trizol (Invitrogen, USA) and Phase-Lock-Gel columns (Eppendorf, Germany) including a DNase digestion step. RNA integrity was assessed by RNA Experion automated electrophoresis system (Bio-Rad Laboratories, Hercules, Calif.).
Probe synthesis using 3 μg total RNA, hybridization, detection, and scanning was performed according to the standard Affymetrix, Inc. USA protocols; cDNA was synthesized using the Two-Cycle cDNA Synthesis Kit (Affymetrix, Inc., USA), and in-vitro transcription performed with the GeneChip IVT Labeling Kit (Affymetrix, Inc., USA). The biotin-labeled IVT-RNA was hybridized to HG-U133A-2 arrays containing 18,400 gene transcripts, each corresponding to 14,500 well-annotated human genes, washed in a GeneChip Fluidics Station 450 (Hewlett Packard, USA, GeneArray-™ scanner G2500A) and scanned according to the manufacturer's protocol (Affymetrix, Inc., USA).
Data analysis was performed on Partek Genomics Solution software (www.partek.com; Partek Incorporated, St. Louis, Mo.). Expression values were computed from raw CEL files by applying the Robust Multi-Chip Average (RMA) background correction algorithm. RMA correction included: 1) values background correction; 2) quintile normalization; 3) log 2 transformation; and 4) median polish summarization. The ANOVA, Repeated Measures and correlation analysis implicated in Partek software ware applied to evaluate LAQ effects. Most informative genes MIGs were defined as those that differentiated between experimental groups with p<0.01. All p-values were calculated for False Discovery Rate (FDR) multiple test correction at p=0.05.
Additionally, significance of individual genes was tested by parametric T-test and non parametric Mann-Whitney test using Bootstrapping approach based on repeated permutations of the data with 5% FDR for multiple testing.
Gene functional annotation, enrichment, and pathway analyses to identify the leading biological pathways that operated under LAQ treatment were performed by Ingenuity Pathways Analysis software (www.ingenuity.com).
ANOVA analysis was used to compare PBMC gene expression after 1, 6 or 24 month of LAQ treatment with baseline gene expression.
For each time point inventors performed analysis source of variation in dataset. (FIG. 1). Age, gender and batch effects were considered as confounders regarding LAQ or Placebo related changes. For each time point genes associated with Placebo effect were evaluated and excluded from further analysis. […]

SMILES: CCN(C(=O)c1c(O)c2c(Cl)cccc2n(C)c1=O)c1ccccc1 [LAQ, 5-chloro-N-ethyl-4-hydroxy-1-methyl-2-oxo-N-phenyl-1,2-dihydroquinoline-3-carboxamide]
- Fold-Change (4.0 vs. 0.0) (gene CTSL2, after six months of LAQ): −1.2276
- Fold-Change (4.0 vs. 0.0) (gene CYLC2, after six months of LAQ): −1.138
- Fold-Change (4.0 vs. 0.0) (gene CYP2A13, after six months of LAQ): −1.227
- Fold-Change (4.0 vs. 0.0) (gene CYP2E1, after six months of LAQ): −1.354
- Fold-Change (4.0 vs. 0.0) (gene CYP2W1, after six months of LAQ): −1.25
- Fold-Change (4.0 vs. 0.0) (gene CYP3A4, six months of treatment): −1.152
- Fold-Change (4.0 vs. 0.0) (gene CYP3A7, after six months of LAQ): −1.1409
- Fold-Change (4.0 vs. 0.0) (gene CYP3A43): −1.194
- Fold-Change (4.0 vs. 0.0) (gene CYP3A43, after six months of LAQ): −1.14
- Fold-Change (4.0 vs. 0.0) (gene CYP4A11, after six months of LAQ): −1.273
- Fold-Change (4.0 vs. 0.0) (gene CYP4A22, after six months of LAQ): −1.127
- Fold-Change (4.0 vs. 0.0) (gene CYP4F11, six months of treatment): −1.145
- Fold-Change (4.0 vs. 0.0) (gene CYP19A1): −1.1916
- Fold-Change (4.0 vs. 0.0) (gene DACH1, after six months of LAQ): −1.261
- Fold-Change (4.0 vs. 0.0) (gene DAZ1 /// DAZ2 /// DAZ3 /// DAZ4, six months of treatment): −1.157
- Fold-Change (4.0 vs. 0.0) (gene DBC1, after six months of LAQ): −1.234
- Fold-Change (4.0 vs. 0.0) (gene DCBLD2, PBMC, six months of LAQ treatment): −1.083
- Fold-Change (4.0 vs. 0.0) (gene DCHS2, after six months of LAQ): −1.141
- Fold-Change (4.0 vs. 0.0) (gene DDR1): −1.185
- Fold-Change (4.0 vs. 0.0) (gene DENND2A, after six months of LAQ): −1.143
- Fold-Change (4.0 vs. 0.0) (gene DENND2A, six months of treatment): −1.159
- Fold-Change (4.0 vs. 0.0) (gene DGKB, after six months of LAQ): −1.135
- Fold-Change (4.0 vs. 0.0) (gene DICER1, six months of treatment): −1.145
- Fold-Change (4.0 vs. 0.0) (gene DIO2): −1.184
- Fold-Change (4.0 vs. 0.0) (gene DIRAS3, six months of treatment): −1.147
- Fold-Change (4.0 vs. 0.0) (gene DKFZP434B2016 /// LOC643313, after six months of LAQ): −1.126
- Fold-Change (4.0 vs. 0.0) (gene DKX4, PBMC, six months of LAQ treatment): −1.1214
- Fold-Change (4.0 vs. 0.0) (gene DLEU2 /// DLEU2L, after six months of LAQ): −1.326
- Fold-Change (4.0 vs. 0.0) (gene DLGAP1, six months of treatment): −1.145
- Fold-Change (4.0 vs. 0.0) (gene DLGAP4): −1.193
- Fold-Change (4.0 vs. 0.0) (gene DNAH9, six months of treatment): −1.16
- Fold-Change (4.0 vs. 0.0) (gene DNAJC6, PBMC, six months of LAQ treatment): −1.107
- Fold-Change (4.0 vs. 0.0) (gene DNAJC8, after six months of LAQ): −1.129
- Fold-Change (4.0 vs. 0.0) (gene DNAJC22, six months of treatment): −1.145
- Fold-Change (4.0 vs. 0.0) (gene DOCK5, six months of treatment): −1.1585
- Fold-Change (4.0 vs. 0.0) (gene DOCK6, PBMC, six months of LAQ treatment): −1.107
- Fold-Change (4.0 vs. 0.0) (gene DOCK6, six months of treatment): −1.159
- Fold-Change (4.0 vs. 0.0) (gene DRD2, PBMC, six months of LAQ treatment): −1.121
- Fold-Change (4.0 vs. 0.0) (gene DRD5, after six months of LAQ): −1.136
- Fold-Change (4.0 vs. 0.0) (gene DSG2): −1.188
- Fold-Change (4.0 vs. 0.0) (gene DUX3 /// DUX4 /// FRG2C /// HPX-2 /// LOC100134409 /// LOC652119 /// LOC653543 /// LOC653544 /// LOC653545 /// LOC728410, after six months of LAQ): −1.237
- Fold-Change (4.0 vs. 0.0) (gene DYNC1I1, after six months of LAQ): −1.229
- Fold-Change (4.0 vs. 0.0) (gene DZIP1, after six months of LAQ): −1.125
- Fold-Change (4.0 vs. 0.0) (gene E2F5, after six months of LAQ): −1.13
- Fold-Change (4.0 vs. 0.0) (gene EDA2R, after six months of LAQ): −1.2385
- Fold-Change (4.0 vs. 0.0) (gene EDNRA, PBMC, six months of LAQ treatment): −1.11
- Fold-Change (4.0 vs. 0.0) (gene EDNRA, six months of treatment): −1.154
- Fold-Change (4.0 vs. 0.0) (gene EFCAB6, after six months of LAQ): −1.231
- Fold-Change (4.0 vs. 0.0) (gene EFNB1, after six months of LAQ): −1.279
- Fold-Change (4.0 vs. 0.0) (gene EFNB3): −1.188
- Fold-Change (4.0 vs. 0.0) (gene EFS): −1.191
- Fold-Change (4.0 vs. 0.0) (gene EFS, after six months of LAQ): −1.247
- Fold-Change (4.0 vs. 0.0) (gene EGFL6, after six months of LAQ): −1.235
- Fold-Change (4.0 vs. 0.0) (gene EGFR, six months of treatment): −1.154
- Fold-Change (4.0 vs. 0.0) (gene ELAVL2, after six months of LAQ): −1.135
- Fold-Change (4.0 vs. 0.0) (gene ELAVL4, after six months of LAQ): −1.248
- Fold-Change (4.0 vs. 0.0) (gene ELF5, after six months of LAQ): −1.142
- Fold-Change (4.0 vs. 0.0) (gene ELL2, after six months of LAQ): −1.292
- Fold-Change (4.0 vs. 0.0) (gene EMX1, after six months of LAQ): −1.134
- Fold-Change (4.0 vs. 0.0) (gene ENTPD7, after six months of LAQ): −1.259
- Fold-Change (4.0 vs. 0.0) (gene EPAS1, six months of treatment): −1.146
- Fold-Change (4.0 vs. 0.0) (gene EPB41, after six months of LAQ): −1.138
- Fold-Change (4.0 vs. 0.0) (gene EPB41L1): −1.192
- Fold-Change (4.0 vs. 0.0) (gene EPB41L4B, after six months of LAQ): −1.142
- Fold-Change (4.0 vs. 0.0) (gene EPHB3, after six months of LAQ): −1.129
- Fold-Change (4.0 vs. 0.0) (gene ERC1, six months of treatment): −1.145
- Fold-Change (4.0 vs. 0.0) (gene ERG, six months of treatment): −1.144
- Fold-Change (4.0 vs. 0.0) (gene ERN1, after six months of LAQ): −1.277
- Fold-Change (4.0 vs. 0.0) (gene ESR2, after six months of LAQ): −1.248
- Fold-Change (4.0 vs. 0.0) (gene ETV1, after six months of LAQ): −1.14
- Fold-Change (4.0 vs. 0.0) (gene ETV5): −1.19
- Fold-Change (4.0 vs. 0.0) (gene EXOSC6, after six months of LAQ): −1.266
- Fold-Change (4.0 vs. 0.0) (gene F11): −1.187
- Fold-Change (4.0 vs. 0.0) (gene FABP3): −1.191
- Fold-Change (4.0 vs. 0.0) (gene FAM12A, after six months of LAQ): −1.14
- Fold-Change (4.0 vs. 0.0) (gene FAM13C, after six months of LAQ): −1.134
- Fold-Change (4.0 vs. 0.0) (gene FAM66D, PBMC, six months of LAQ treatment): −1.116
- Fold-Change (4.0 vs. 0.0) (gene FAM107A, six months of treatment): −1.152
- Fold-Change (4.0 vs. 0.0) (gene FAM155A, after six months of LAQ): −1.129
- Fold-Change (4.0 vs. 0.0) (gene FAM174B, after six months of LAQ): −1.138
- Fold-Change (4.0 vs. 0.0) (gene FAM182B, PBMC, six months of LAQ treatment): −1.118
- Fold-Change (4.0 vs. 0.0) (gene FAM186A, after six months of LAQ): −1.1268

Reference: US20160201132A1, “GENE EXPRESSION BIOMARKERS OF LAQUINIMOD RESPONSIVENESS” (Teva Pharmaceutical Industries Ltd., priority 2013, published 2016)
